Data taken from patent US12226383B1, “Compositions containing short-chain fatty acid, methods of use, and methods of making thereof” (Velocity Life Sciences, LLC, priority 2024, dated 2025).

Tests used:
[1] = Organoleptic study: smell assessment on 200 mm visual analog scale; design: species or system human; details: N=10 subjects; 200 mg sample; 200 mm VAS
[2] = Organoleptic study: taste assessment on 200 mm visual analog scale; design: species or system human; details: N=10 subjects; 200 mg sample; 200 mm VAS

## L-lysine butyrate
[1]
  Smell rating, Max: 115
  Smell rating, Mean: 105.10
  Smell rating, Median: 102.5
  Smell rating, Min: 98
[2]
  Taste rating, Max: 108
  Taste rating, Mean: 101.50
  Taste rating, Median: 101.00
  Taste rating, Min: 93
